# Laboratory results: article PMC5996148
# Some of the results follow.
# Columns and labels:
# Assay in all cases: protein microarray (ProtoArray v5.0), streptavidin-Alexa Fluor 647
# Conditions in all cases: 3'-biotin; 20 mM Tris (pH 7.5), 5 mM MgCl2, 100 mM KCl, 0.1% Tween-20, A/T-rich and random oligonucleotide blockers; temperature not stated; high values mean tight binding
# ERRFI1 (human) = system: ERRFI1 (human)
# ETFB (human) = system: ETFB (human)
# ETHE1 (human) = system: ETHE1 (human)
# ETS1 (human) = system: ETS1 (human)
# EXO1 (human) = system: EXO1 (human)
# EXOC7 (human) = system: EXOC7 (human)
# EXOSC7 (human) = system: EXOSC7 (human)
# [1] = system: Ecto-NOX disulfide-thiol exchanger 2 (human)
# [2] = system: Elongation factor 1-gamma (human)
# Endophilin-B2 (human) = system: Endophilin-B2 (human)
sequence,measurement,setting,value
GGGAGGCTGAGGCAGG [G4-1 biotinylated (PQS2)],binding signal,ERRFI1 (human),-0.322 z-score
same,binding signal,ETFB (human),-0.319 z-score
same,binding signal,ETHE1 (human),-0.352 z-score
same,binding signal,ETS1 (human),-0.336 z-score
same,binding signal,EXO1 (human),-0.324 z-score
same,binding signal,EXOC7 (human),-0.283 z-score
same,binding signal,EXOSC7 (human),-0.345 z-score
same,binding signal,[1],-0.333 z-score
same,binding signal,[2],-0.359 z-score
same,binding signal,Endophilin-B2 (human),-0.321 z-score

# In another format: results already given.
sequence | measurement | setting | value
GGGAGGCTGAGGCAGG [G4-1 biotinylated (PQS2)] | binding signal | ERRFI1 (human) | -0.322 z-score
same | binding signal | ETHE1 (human) | -0.352 z-score
